The target in assay [1] is T1, glutamine-rich protein 2 (QRICH2) (mouse (endogenous in mouse testes)) (UniProt Q3V2A7).
T1 sequence: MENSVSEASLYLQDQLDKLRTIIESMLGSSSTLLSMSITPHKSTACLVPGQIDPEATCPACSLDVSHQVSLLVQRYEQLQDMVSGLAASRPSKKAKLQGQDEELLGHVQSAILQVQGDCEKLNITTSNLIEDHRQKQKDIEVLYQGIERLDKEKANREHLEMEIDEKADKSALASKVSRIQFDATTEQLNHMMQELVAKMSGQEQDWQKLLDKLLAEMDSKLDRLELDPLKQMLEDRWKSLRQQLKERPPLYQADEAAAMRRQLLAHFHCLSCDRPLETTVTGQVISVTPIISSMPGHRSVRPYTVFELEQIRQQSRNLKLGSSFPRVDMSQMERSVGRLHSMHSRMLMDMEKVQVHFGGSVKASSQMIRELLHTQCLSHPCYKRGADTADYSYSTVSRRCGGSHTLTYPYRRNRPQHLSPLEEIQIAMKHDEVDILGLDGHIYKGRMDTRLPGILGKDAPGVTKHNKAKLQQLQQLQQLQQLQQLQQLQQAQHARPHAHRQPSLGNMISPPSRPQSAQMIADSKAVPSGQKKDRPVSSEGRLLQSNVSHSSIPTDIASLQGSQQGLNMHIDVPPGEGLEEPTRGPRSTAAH
As to the kind of experiment: proximity ligation; Duolink In Situ PLA on sperm cells fixed with 4% PFA and permeabilized with 0.3% Triton X-100; rabbit anti-QRICH2 and mouse anti-α-TUBULIN primary antibodies; signal within 40 nm.

The target of assay [2] is T1, glutamine-rich protein 2 (QRICH2) (mouse (endogenous in mouse testes)). As to the kind of experiment: co-IP; total proteins from mouse testes incubated with 5-10 µl target antibodies overnight at 4 °C, Protein A/G magnetic beads 60 min at room temperature, eluted in 1xSDS, western blot. In general terms: A western blot detects proteins with antibodies after separation by electrophoresis.

Results are given in words; binding and its absence hold for the method and conditions named. Binding seen in cells or lysates may run through a third protein. A result given as binding can be weak or reduced; the word gives no strength.

Drawing on article PMC11006759, this text covers binding for one substance.

As for “α-TUBULIN (mouse (endogenous in mouse testes))”, the binding result in assay [1] and in assay [2] was “binds” each time.
